Literature values as cited in US6358699B1, “Assay for asymmetrical NG, NG dimethyl-l-arginine” (Cooke Pharma, priority 1999, dated 2002).

Conditions: cited from earlier work

CN(C)C(N)=NCCC[C@H](N)C(=O)O [ADMA, asymmetric dimethylarginine]
normal plasma ADMA level (normal values): about 1 micromolar
elevation of plasma ADMA levels from normal (uremic rats and patients with renal failure): 5-10 fold
